Results deposited as PubChem BioAssay AID1259308 (NCATS, 2017)

Purpose: 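Genes whose loss raises luciferase production in HEK293 cells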 (primary screen)
Cells: human HEK293 embryonic kidney cells stably expressing firefly luciferase (HEK-CMV-Luc2-Hygro)
Knock-down reagent: single siRNA against human genes, 0.8 pmol siRNA per well
Timing: 72 h
Measured: 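Reporter luminescence and viable-cell signal on separate replicate plates, given as percent of non-targeting control and median/MAD z-scores, plus per-cell luciferase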
Direction: total luciferase, z-score and total luciferase, % of control: higher = more reporter protein produced
Call rule: 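Active when the median/MAD z-score for overall luciferase is greater than 3; a gene was taken forward for validation with new siRNAs if at least two of its three siRNAs passed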
Meaning of the calls: active = raised luciferase; inactive = no rise
In all, the deposit lists about 59,000 reagents; this is an unselected part. Of all reagents, about 1,510 (2.6%) got an active call. 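Calls use total luciferase alone and ignore viability, so some active siRNAs may act by altering cell number.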 Unmarked entries are inactive. Reagents against one gene are numbered here. Further read-outs or replicates are left out here.

PIP4K2A #1 — total luciferase, z-score = 0.968; total luciferase, % of control = 101
PIP4K2A #2 — total luciferase, z-score = -0.703; total luciferase, % of control = 67.9
PIP4K2A #3 — total luciferase, z-score = 0.534; total luciferase, % of control = 92.5
PAK5 #1 — total luciferase, z-score = -0.242; total luciferase, % of control = 77.1
PAK5 #2 — total luciferase, z-score = -0.0917; total luciferase, % of control = 80.1
PAK5 #3 — total luciferase, z-score = -1.12; total luciferase, % of control = 59.6
HNRNPKP3 #1 — total luciferase, z-score = -0.305; total luciferase, % of control = 75.8
HNRNPKP3 #2 — total luciferase, z-score = -1.02; total luciferase, % of control = 61.6
HNRNPKP3 #3 — total luciferase, z-score = 1.02; total luciferase, % of control = 102
PLP1 #1 — total luciferase, z-score = -0.968; total luciferase, % of control = 62.6
PLP1 #2 — total luciferase, z-score = -0.264; total luciferase, % of control = 76.6
PLP1 #3 — total luciferase, z-score = 2.26; total luciferase, % of control = 127
LDHD #1 — total luciferase, z-score = -0.235; total luciferase, % of control = 77.2
LDHD #2 — total luciferase, z-score = -0.225; total luciferase, % of control = 77.4
LDHD #3 — total luciferase, z-score = -0.643; total luciferase, % of control = 69.1
CBLC #1 — total luciferase, z-score = -0.105; total luciferase, % of control = 79.8
CBLC #2 — total luciferase, z-score = -0.0654; total luciferase, % of control = 80.6
CBLC #3 — total luciferase, z-score = 3.16 (active); total luciferase, % of control = 145
SVEP1 #1 — total luciferase, z-score = 1.57; total luciferase, % of control = 113
SVEP1 #2 — total luciferase, z-score = -0.0363; total luciferase, % of control = 81.2
SVEP1 #3 — total luciferase, z-score = -1.37; total luciferase, % of control = 54.5
PHF19 #1 — total luciferase, z-score = -0.516; total luciferase, % of control = 71.6
PHF19 #2 — total luciferase, z-score = -0.206; total luciferase, % of control = 77.8
PHF19 #3 — total luciferase, z-score = -0.489; total luciferase, % of control = 72.2
RPL10P8 #1 — total luciferase, z-score = -1; total luciferase, % of control = 62
RPL10P8 #2 — total luciferase, z-score = 0.038; total luciferase, % of control = 82.6
RPL10P8 #3 — total luciferase, z-score = 1.75; total luciferase, % of control = 117
GARIN4 #1 — total luciferase, z-score = 1.01; total luciferase, % of control = 102
GARIN4 #2 — total luciferase, z-score = -0.666; total luciferase, % of control = 68.6
GARIN4 #3 — total luciferase, z-score = -0.14; total luciferase, % of control = 79.1
TMEM208 #1 — total luciferase, z-score = -1.29; total luciferase, % of control = 56.2
TMEM208 #2 — total luciferase, z-score = 0.00249; total luciferase, % of control = 81.9
TMEM208 #3 — total luciferase, z-score = -0.0601; total luciferase, % of control = 80.7

4 entries already listed, sorted by “total luciferase, % of control”, descending:
PLP1 #3 — total luciferase, z-score = 2.26; total luciferase, % of control = 127
LDHD #2 — total luciferase, z-score = -0.225; total luciferase, % of control = 77.4
LDHD #1 — total luciferase, z-score = -0.235; total luciferase, % of control = 77.2
LDHD #3 — total luciferase, z-score = -0.643; total luciferase, % of control = 69.1
